Changes are numbered by the printed parent chain. Names may count otherwise. These are yes or no findings as the source states them, for the method shown. For some assays here: In cells and extracts the contact can be indirect. Some results given as binding are weak or reduced against the parent protein; the word gives no strength. Where a sequence is shown, tags or fusion partners need not be part of it.
B1: WRB-HA-NFT (protein, UniProt O00258 1-174)
chain: MSSAAADHWAWLLVLSFVFGCNVLRILLPSFSSFMSRVLQKDAEQESQMRAEIQDMKQELSTVNMMDEFARYARLERKINKMTDKLKTHVKARTAQLAKIKWVISVAFYVLQAALMISLIWKYYSVPVAVVPSKWITPLDRLVAFPTRVAGGVGITCWILVCNKVVAIVLHPFS
B2: WRB (K164L)-HA-NFT (protein, UniProt O00258 1-174)
chain: B1 chain with K164L
B3: WRB (K164D)-HA-NFT (protein, UniProt O00258 1-174)
chain: B1 chain with K164D
B4: WRB (K164L)-FLAG (protein, UniProt O00258 1-174)
chain: B1 chain with K164L

Protein sequences, listed by entry. Tags and fused reporters are not part of them. Lines headed by an entry give the natural chain unless they say otherwise; changes in a name come on top.
UniProt P49069, whole entry: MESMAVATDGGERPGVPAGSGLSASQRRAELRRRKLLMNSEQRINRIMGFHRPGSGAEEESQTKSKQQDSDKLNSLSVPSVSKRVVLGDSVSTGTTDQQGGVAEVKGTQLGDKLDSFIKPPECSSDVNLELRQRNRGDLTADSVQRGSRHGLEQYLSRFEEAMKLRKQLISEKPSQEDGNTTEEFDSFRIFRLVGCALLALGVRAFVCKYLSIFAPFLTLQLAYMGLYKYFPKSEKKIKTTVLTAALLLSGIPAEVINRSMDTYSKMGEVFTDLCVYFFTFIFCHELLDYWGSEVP
UniProt Q9UGP8, whole entry: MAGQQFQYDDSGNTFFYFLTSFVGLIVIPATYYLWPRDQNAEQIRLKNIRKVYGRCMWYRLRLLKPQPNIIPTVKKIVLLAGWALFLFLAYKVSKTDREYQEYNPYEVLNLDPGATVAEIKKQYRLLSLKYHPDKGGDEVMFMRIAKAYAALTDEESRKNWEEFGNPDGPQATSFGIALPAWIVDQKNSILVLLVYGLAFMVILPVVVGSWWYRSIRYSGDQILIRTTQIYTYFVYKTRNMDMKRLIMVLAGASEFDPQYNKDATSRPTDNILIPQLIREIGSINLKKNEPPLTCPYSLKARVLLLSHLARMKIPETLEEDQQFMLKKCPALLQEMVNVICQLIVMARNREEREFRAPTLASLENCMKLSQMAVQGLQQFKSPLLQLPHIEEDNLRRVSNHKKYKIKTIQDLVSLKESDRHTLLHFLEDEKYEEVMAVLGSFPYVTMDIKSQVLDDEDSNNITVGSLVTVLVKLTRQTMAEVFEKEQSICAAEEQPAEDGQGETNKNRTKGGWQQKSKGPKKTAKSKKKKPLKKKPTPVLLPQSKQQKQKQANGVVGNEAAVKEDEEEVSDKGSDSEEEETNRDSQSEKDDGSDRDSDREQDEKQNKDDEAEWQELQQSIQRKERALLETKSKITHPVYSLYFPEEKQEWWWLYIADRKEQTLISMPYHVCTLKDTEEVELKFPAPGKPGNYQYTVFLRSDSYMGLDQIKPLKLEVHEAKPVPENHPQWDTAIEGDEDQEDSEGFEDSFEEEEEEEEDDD

Columns and labels:
[1] = molecular target: CAML-FLAG (UniProt P49069); assay: co-IP
[2] = molecular target: Sec63-FLAG (UniProt Q9UGP8); assay: co-IP
[3] = molecular target: CAML-HA (UniProt P49069); assay: pull-down

| Binder | binding [1] | binding [2] | binding [3] |
| --- | --- | --- | --- |
| B1 | binds |  |  |
| B2 | binds weakly | binds weakly |  |
| B3 | binds |  |  |
| B4 |  |  | binds |

From doi:10.1101/843326
